Experimental data: paper PMC8198132
No constants are given. Whether binding was seen depends on the method and setting. In cells and extracts the contact can be indirect. Some binding calls cover weakened binding; strength is not graded here. Where a sequence is shown, tags or fusion partners need not be part of it. Blank lines part the entries; values can stand above or below the binder they belong to.

How the values were obtained:
[1] = target: T1, GFP-USP29 (ubiquitin-specific protease 29), wild type (UniProt Q9HBJ7); experiment: co-IP; HEK293 cells co-transfected with Myc-Cdc25A and GFP-USP29 for 48 h; lysed in RIPA buffer (50 mM Tris pH 7.6, 150 mM NaCl, 2 mM EDTA, 1% Triton X-100, 0.1% SDS, 1 mM PMSF); IP with anti-Myc or anti-GFP overnight at 4 °C, protein A/G Sepharose beads; Western blot with the reciprocal antibody
T1 sequence: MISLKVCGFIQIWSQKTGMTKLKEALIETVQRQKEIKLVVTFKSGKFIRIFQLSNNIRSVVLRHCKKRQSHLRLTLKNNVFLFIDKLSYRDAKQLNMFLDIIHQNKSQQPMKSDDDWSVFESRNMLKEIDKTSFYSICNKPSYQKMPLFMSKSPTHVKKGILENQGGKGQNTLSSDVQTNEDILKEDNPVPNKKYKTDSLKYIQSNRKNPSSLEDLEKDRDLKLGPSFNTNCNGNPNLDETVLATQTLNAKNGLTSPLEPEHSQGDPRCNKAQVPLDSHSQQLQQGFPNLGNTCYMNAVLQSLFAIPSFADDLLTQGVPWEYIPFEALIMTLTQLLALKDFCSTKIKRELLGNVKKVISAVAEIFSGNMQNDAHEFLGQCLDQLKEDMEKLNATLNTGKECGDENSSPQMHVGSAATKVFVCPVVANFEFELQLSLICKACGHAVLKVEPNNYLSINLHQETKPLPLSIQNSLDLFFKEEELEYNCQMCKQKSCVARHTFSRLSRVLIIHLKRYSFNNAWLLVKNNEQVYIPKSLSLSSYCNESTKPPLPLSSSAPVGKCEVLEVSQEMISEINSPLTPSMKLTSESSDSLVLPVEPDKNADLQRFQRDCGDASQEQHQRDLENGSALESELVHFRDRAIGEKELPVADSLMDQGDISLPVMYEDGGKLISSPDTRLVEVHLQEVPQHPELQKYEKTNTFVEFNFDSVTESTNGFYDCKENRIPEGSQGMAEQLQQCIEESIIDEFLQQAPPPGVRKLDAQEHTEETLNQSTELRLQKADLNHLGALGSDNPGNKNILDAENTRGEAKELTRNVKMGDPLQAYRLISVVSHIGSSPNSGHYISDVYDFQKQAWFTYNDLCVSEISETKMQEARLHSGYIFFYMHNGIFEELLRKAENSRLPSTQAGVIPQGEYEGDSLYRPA

[2] = target: T2, Myc-Cdc25A (cell division cycle 25A) (UniProt P30304); experiment: as above
T2 sequence: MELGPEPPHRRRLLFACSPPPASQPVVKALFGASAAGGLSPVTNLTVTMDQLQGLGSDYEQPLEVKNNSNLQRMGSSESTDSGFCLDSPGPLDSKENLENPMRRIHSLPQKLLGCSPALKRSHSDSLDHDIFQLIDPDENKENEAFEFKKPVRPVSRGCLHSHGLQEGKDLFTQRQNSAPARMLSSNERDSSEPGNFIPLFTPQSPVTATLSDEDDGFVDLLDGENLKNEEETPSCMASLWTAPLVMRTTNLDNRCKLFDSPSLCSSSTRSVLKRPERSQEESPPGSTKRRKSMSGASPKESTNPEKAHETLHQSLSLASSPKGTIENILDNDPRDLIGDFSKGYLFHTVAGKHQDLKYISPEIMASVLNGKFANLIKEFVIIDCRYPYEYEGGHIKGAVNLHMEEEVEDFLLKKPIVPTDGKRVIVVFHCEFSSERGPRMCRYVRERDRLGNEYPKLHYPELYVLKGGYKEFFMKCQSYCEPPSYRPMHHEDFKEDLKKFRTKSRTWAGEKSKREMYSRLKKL

binding [1]: binds
B1: Myc-Cdc25A (cell division cycle 25A) (protein, UniProt P30304 1-524)
chain: T2 sequence

binding [2]: binds
B2: GFP-USP29 (ubiquitin-specific protease 29), wild type (enzyme, UniProt Q9HBJ7 1-922)
chain: T1 sequence
